Test results reported in PMC6405930, “Conservation of the Amyloid Interactome Across Diverse Fibrillar Structures” (Scientific Reports, 2019).

Key:
[1] = In-solution digest of CSF, quantitative MS/MS (relative protein composition); parameters: species or system human; conditions: original CSF, no fibrils
[2] = In-solution digest of plasma, quantitative MS/MS (relative protein composition); parameters: species or system human; conditions: original plasma, no fibrils

B1: Apolipoprotein A-IV: plasma/CSF protein bound to fibrils (protein, UniProt P06727 21-396, looked up)
Apolipoprotein A-IV: EVSADQVATVMWDYFSQLSNNAKEAVEHLQKSELTQQLNALFQDKLGEVNTYAGDLQKKLVPFATELHERLAKDSEKLKEEIGKELEELRARLLPHANEVSQKIGDNLRELQQRLEPYADQLRTQVSTQAEQLRRQLTPYAQRMERVLRENADSLQASLRPHADELKAKIDQNVEELKGRLTPYADEFKVKIDQTVEELRRSLAPYAQDTQEKLNHQLEGLTFQMKKNAEELKARISASAEELRQRLAPLAEDVRGNLRGNTEGLQKSLAELGGHLDQQVEEFRRRVEPYGENFNKALVQQMEQLRQKLGPHAGDVEGHLSFLEKDLRDKVNSFFSTFKEKESQDKTLSLPELEQQQEQQQEQQQEQVQMLAPLES
For B1, the “Relative composition of CSF proteins: CSF” value [1] was 0.0 ± 0.0 % of total protein and the “Relative composition of plasma proteins: Plasma” value [2] was 0.2 ± 0.0 % of total protein.
